Assay results from PubChem BioAssay AID2073 (Sanford-Burnham Center for Chemical Genomics, 2009).
The other results are listed elsewhere or left out.

By UniProt entry, the sequences of proteins in these tests, tags left out.
UniProt Q00975, whole entry: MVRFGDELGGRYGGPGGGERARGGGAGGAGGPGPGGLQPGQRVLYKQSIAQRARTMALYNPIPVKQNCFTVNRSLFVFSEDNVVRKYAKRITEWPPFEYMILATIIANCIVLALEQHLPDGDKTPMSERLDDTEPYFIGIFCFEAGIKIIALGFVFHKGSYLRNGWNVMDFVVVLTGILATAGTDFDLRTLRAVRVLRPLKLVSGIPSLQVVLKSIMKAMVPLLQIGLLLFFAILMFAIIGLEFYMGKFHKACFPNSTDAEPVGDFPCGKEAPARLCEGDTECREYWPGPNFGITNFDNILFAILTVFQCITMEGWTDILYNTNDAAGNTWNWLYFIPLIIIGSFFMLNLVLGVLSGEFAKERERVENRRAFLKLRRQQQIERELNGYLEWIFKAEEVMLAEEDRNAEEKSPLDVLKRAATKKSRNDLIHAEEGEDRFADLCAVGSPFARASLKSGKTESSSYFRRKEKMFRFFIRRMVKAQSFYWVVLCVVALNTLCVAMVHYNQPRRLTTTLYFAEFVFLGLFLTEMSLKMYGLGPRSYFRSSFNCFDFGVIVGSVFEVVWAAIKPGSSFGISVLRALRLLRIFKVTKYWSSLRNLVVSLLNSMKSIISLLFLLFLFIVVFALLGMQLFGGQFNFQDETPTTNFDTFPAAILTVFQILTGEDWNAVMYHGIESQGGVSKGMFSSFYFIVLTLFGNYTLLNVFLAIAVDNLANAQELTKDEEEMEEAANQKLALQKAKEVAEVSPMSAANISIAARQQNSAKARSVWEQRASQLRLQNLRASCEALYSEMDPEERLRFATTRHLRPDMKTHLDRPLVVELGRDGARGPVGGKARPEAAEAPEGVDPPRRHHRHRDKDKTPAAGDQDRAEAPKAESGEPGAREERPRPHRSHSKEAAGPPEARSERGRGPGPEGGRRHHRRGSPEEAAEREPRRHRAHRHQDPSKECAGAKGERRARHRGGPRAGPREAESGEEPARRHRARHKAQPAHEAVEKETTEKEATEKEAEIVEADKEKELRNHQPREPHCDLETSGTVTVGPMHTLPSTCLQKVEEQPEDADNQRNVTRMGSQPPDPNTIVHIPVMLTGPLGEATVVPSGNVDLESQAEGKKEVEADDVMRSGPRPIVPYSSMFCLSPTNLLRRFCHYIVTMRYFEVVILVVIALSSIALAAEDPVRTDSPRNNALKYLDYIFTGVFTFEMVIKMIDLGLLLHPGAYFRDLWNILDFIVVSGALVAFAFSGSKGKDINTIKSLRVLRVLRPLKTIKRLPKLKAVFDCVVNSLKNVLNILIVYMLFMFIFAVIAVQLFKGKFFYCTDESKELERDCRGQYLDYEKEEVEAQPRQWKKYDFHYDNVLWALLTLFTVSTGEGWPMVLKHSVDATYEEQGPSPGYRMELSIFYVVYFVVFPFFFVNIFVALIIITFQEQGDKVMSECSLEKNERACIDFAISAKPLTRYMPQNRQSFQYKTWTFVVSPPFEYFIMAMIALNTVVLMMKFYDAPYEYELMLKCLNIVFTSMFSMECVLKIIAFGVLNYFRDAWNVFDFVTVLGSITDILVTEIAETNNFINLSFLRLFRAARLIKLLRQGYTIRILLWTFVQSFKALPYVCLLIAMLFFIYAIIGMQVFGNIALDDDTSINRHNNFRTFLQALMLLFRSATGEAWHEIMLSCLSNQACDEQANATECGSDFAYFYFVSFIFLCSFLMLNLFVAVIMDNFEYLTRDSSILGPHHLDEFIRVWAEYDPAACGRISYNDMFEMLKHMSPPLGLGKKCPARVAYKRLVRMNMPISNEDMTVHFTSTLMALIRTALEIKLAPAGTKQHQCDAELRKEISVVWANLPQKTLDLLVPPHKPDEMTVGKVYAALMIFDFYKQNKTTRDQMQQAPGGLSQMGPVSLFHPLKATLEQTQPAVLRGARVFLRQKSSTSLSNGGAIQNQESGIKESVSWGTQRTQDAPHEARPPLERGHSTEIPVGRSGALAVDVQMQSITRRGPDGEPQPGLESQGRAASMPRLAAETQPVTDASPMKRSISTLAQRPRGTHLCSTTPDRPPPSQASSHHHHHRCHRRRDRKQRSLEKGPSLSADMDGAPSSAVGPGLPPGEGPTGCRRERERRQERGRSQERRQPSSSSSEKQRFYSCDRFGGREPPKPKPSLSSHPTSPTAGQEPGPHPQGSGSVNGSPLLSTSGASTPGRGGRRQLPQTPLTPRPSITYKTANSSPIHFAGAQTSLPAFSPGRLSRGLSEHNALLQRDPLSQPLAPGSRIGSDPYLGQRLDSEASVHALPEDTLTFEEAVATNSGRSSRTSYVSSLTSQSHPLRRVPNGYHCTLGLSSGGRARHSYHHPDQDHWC

Each molecule was assayed against Voltage-dependent N-type calcium channel subunit alpha-1B (Homo sapiens) (UniProt Q00975) (assay: inhibitors of Mint1-CaV2.2 protein interaction, biochemical, HTRF (AID 2073)). Conditions: measured here: average of repeat tests, at 20 µM, stronger effect = higher value.

Row | Structure (SMILES) | inhibition [%]
1 | CCN(CC)c1ccc(NC(=O)Cn2c(C(C)NC(=O)c3ccccc3)nc3ccccc32)cc1 (stereo unspecified) | 69.2
